US11649228B2, “Zinc indicators for cellular imaging” (The Board of Regents of the University of Texas System, priority 2018, dated 2023)
Some of these results come from one statement about several compounds together.

Assay: pH sensitivity of ZIGIR fluorescence
Assay type: physicochemical
Conditions: Zn^2+-free or 20-25 μM Zn^2+ solutions
Protocol: UV-Vis spectra were recorded in a 1-cm path quartz cell on a Shimadzu 2401 PC spectrometer. Fluorescence excitation and emission spectra were recorded on a Fluorolog 3 spectrometer (Jobin-Yvon Horiba, Edison, N.J.). Zinc titration was performed by adding ZIGIRs (0.5 μM final concentration) to buffered Zn^2+ solutions containing 100 mM HEPES (pH 7.4). Nitrilotriacetic acid (NTA, 10 mM) and varying concentrations of ZnSO4 (0-9 mM) were mixed to reach free Zn^2+ concentrations between 0.1 nM and 40 nM (Li et al., 2011). Zn^2+ concentrations above 40 nM were controlled by iminodiacetate (IDA, 10 mM) and varying amounts of ZnSO4 (0-9.7 mM) in 100 mM HEPES (pH 7.4; Sasaki et al., 2011). To determine Zn^2+ binding dissociation constants (Kd(Zn^2+)), the Zn^2+ titration data were fitted to the least square exponential equation (Prism 7). Fluorescence quantum yields of ZIGIRs at pH 7.5 were determined using rhodamine 6G as the reference (Φfl=0.94 in MeOH; Magde et al., 2002). An example in shown FIGS. 11A0B. To examine the pH sensitivity of ZIGIRs, the fluorescence emission spectra was recorded from pH 3-9.4 in either nominally Zn^2+-free solutions containing 5 mM iminodiacetate or in 25 μM ZnSO4 solutions. […]

## CN(C)c1ccc2c(-c3ccc(NCCN(CCc4ccccn4)Cc4ccccn4)cc3C(=O)[O-])c3ccc(=[N+](C)C)cc-3oc2c1 [ZIGIR-2]
  pH range in which fluorescence / Zn^2+ responsivity is refractory to pH: 5-7.5 pH

## CCN(CC)c1ccc2c(-c3ccc(NCCN(CCc4ccccn4)Cc4ccccn4)cc3C(=O)[O-])c3ccc(=[N+](CC)CC)cc-3oc2c1 [ZIGIR-3]
  pH range in which fluorescence / Zn^2+ responsivity is refractory to pH: 5-7.5 pH
